Experimental data as given in publication PMC10646014.
No constants are given. Whether binding was seen depends on the method and setting. Binding seen in cells or lysates may run through a third protein. Tags and fused reporters may be left off the sequences shown.

Molecular target: SETD5 deletion mutant N (N-terminal part), FLAG-tagged (human)
Assay: co-IP; 293 T cells co-transfected with 3× FLAG-tagged SETD5 (WT or deletion mutants N, Mid, C) and MYC-OGT; 100 nM OGA inhibitor (Thiamet-G) for 24 h in Fig. 3A; immunoprecipitated by FLAG-affinity gel, western blot

binding: no binding
B1: MYC-tagged OGT (O-GlcNAc transferase) in 293 T cells (enzyme, UniProt O15294 1-1046)
chain: MASSVGNVADSTEPTKRMLSFQGLAELAHREYQAGDFEAAERHCMQLWRQEPDNTGVLLLLSSIHFQCRRLDRSAHFSTLAIKQNPLLAEAYSNLGNVYKERGQLQEAIEHYRHALRLKPDFIDGYINLAAALVAAGDMEGAVQAYVSALQYNPDLYCVRSDLGNLLKALGRLEEAKACYLKAIETQPNFAVAWSNLGCVFNAQGEIWLAIHHFEKAVTLDPNFLDAYINLGNVLKEARIFDRAVAAYLRALSLSPNHAVVHGNLACVYYEQGLIDLAIDTYRRAIELQPHFPDAYCNLANALKEKGSVAEAEDCYNTALRLCPTHADSLNNLANIKREQGNIEEAVRLYRKALEVFPEFAAAHSNLASVLQQQGKLQEALMHYKEAIRISPTFADAYSNMGNTLKEMQDVQGALQCYTRAIQINPAFADAHSNLASIHKDSGNIPEAIASYRTALKLKPDFPDAYCNLAHCLQIVCDWTDYDERMKKLVSIVADQLEKNRLPSVHPHHSMLYPLSHGFRKAIAERHGNLCLDKINVLHKPPYEHPKDLKLSDGRLRVGYVSSDFGNHPTSHLMQSIPGMHNPDKFEVFCYALSPDDGTNFRVKVMAEANHFIDLSQIPCNGKAADRIHQDGIHILVNMNGYTKGARNELFALRPAPIQAMWLGYPGTSGALFMDYIITDQETSPAEVAEQYSEKLAYMPHTFFIGDHANMFPHLKKKAVIDFKSNGHIYDNRIVLNGIDLKAFLDSLPDVKIVKMKCPDGGDNADSSNTALNMPVIPMNTIAEAVIEMINRGQIQITINGFSISNGLATTQINNKAATGEEVPRTIIVTTRSQYGLPEDAIVYCNFNQLYKIDPSTLQMWANILKRVPNSVLWLLRFPAVGEPNIQQYAQNMGLPQNRIIFSPVAPKEEHVRRGQLADVCLDTPLCNGHTTGMDVLWAGTPMVTMPGETLASRVAASQLTCLGCLELIAKNRQEYEDIAVKLGTDLEYLKKVRGKVWKQRISSPLFNTKQYTMELERLYLQMWEHYAAGNKPDHMIKPVEVTESA
